From PubChem BioAssay AID1347426 (Functional Genomics Laboratory (NCATS/FGL), 2020)
The campaign covered roughly 31,000 sequences. About 1,400 (4.5%) were called active.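 The calls were made as follows: active = median seed-adjusted z-score above 1 or below -1; inactive = the rest.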 This is one part of the list.

Assay: Novel Modifiers of Survival Motor Neuron (SMN) Protein: Gene Identification via Genome-wide siRNA Screen;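 also: luminescence tracks full-length SMN protein made from the SMN2 reporter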
Details: HEK293T SMN2-luciferase reporter, siRNA knockdown, 72 h; actives lie on both sides
How it was run: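 Genome-wide siRNA screen (10418 genes, 3 siRNAs each, 1 pmol per well) by reverse transfection in HEK293T cells stably carrying an SMN2-luciferase reporter; luminescence after 72 hours, normalized to negative-control siRNA, log10-transformed, MAD-scored.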

Row | Sequence | median seed-adjusted z-score
1 | GCCUGACACUGUAUGGGCUTT against TNXB | inactive: -0.0996
2 | GACUGACGAUGACACGGAATT against KPNA6 | active: -1.54
3 | GCAGGUCACGGUUGAUGUATT against FANCA | inactive: 0.418
4 | GGAGGACUUCUGUCAAACATT against UNQ9391 | inactive: -0.312
5 | GGUCUGGACAUCUAUCUCATT against CD2 | inactive: 0.00791
6 | GGACAUUUGAUAUCGAGGATT against B3GNT2 | inactive: -0.0427
7 | CCUGAUGAAAGAUUACUUUTT against ADCY9 | inactive: 0.269
8 | CAUCAAUGGUCAUAAUGCATT against HNRNPA2B1 | active: 1.33
9 | CCCAACUCAUUAUAGCAUUTT against F8 | inactive: -0.0992
10 | CUCUGACAGUGGUACAACATT against PPM1G | inactive: 0.073
11 | GAAUUUCUAGGGCAAAGAATT against RGS13 | inactive: 0.0487
12 | CUCGGGAGAUGGAAAGAAATT against UPB1 | inactive: -0.0341
13 | GAUACUACCCUGAUCAUAUTT against TMTC3 | inactive: 0.266
14 | GAUUAAUGACUAUUUGAGATT against SERPINA11 | inactive: -0.0879
15 | GCAUUGUCGUUUAUCGAGUTT against AFF3 | inactive: -0.00277
16 | GCUUUGAGUUGGACUAUGATT against TRIM10 | inactive: -0.0934
17 | CUCUGACCCUGGAUCUUGATT against SLC29A2 | inactive: -0.0569
18 | CAUCUUAAGUUGCAUCAUATT against KCNJ16 | inactive: -0.705
19 | ACAUGGUGGUUACCAGGAATT against PIP4K2B | inactive: 0.17
20 | GCACCAAUGAGAUUGAUCUTT against CHRNG | inactive: 0.221
21 | GGAUGGACCUCUACUUCUUTT against SLC15A3 | inactive: 0
22 | GGAAGAUCAUAGAAGUUGATT against SLC1A1 | inactive: 0.0967
23 | GUCCUUUGUUCAAACCAGATT against ZNF543 | inactive: 0

Row | Sequence | median seed-adjusted z-score
24 | GCUGAAGAUUAACAUGAAATT against NTN1 | inactive: -0.0419
25 | GCUACAGACGCAACGAUUATT against CLK2 | inactive: -0.0591
26 | GGCUCUCUGUCAACUAUGATT against MGC21874 | inactive: -0.354
27 | CAAUGACUAUGAAUAAGUATT against SLC9A2 | active: -1.02
28 | CCUCAGACAUUAUGACAAATT against RNF144B | inactive: 0.642
29 | ACAGCAUCCUUUGCGCUGATT against GTPBP1 | inactive: -0.18
30 | GGAGACUGGAGAUACCUUUTT against PGLYRP2 | inactive: -0.697
31 | GACUGUCGCUGGUUGGAGATT against ACPT | inactive: -0.114
32 | CUACUUCCGCAACCAGCUATT against UNC119 | inactive: 0.171
33 | CCAAGAGACUGGAUCGUGATT against CDH7 | inactive: 0
34 | GGUGGAAAAUGACCGGGAATT against SFRS15 | inactive: 0.22
35 | GCAUUUACUGGAGCAUGUATT against GFRA1 | inactive: 0.125
36 | GGAUCGGGUUUAUGGAGCATT against MRC1 | inactive: 0.179
37 | GCAUUUGAGAAGACCGUGATT against PPP1R3B | inactive: -0.298
38 | GCCUCAAAGUGGAGUACGATT against TLE3 | inactive: -0.451
39 | CUUCGACUGUGCUUACUUUTT against AKR1CL2 | inactive: -0.949
40 | CAAACAGCAGCAAAUCAAATT against TCEA3 | inactive: -0.28
41 | GAAACUAUAUCCUACUGAATT against CACNA1C | inactive: 0
42 | GGCUCUUGACAGCACGACATT against CSRP3 | inactive: 0.15
43 | GCCACGCAAAACUCCCUGATT against CRCT1 | inactive: -0.146
44 | GGGCUGCAAGUGGAAUUCATT against NR1H3 | inactive: 0.426
45 | GGGUGAGACUAAGAAUAUATT against CA14 | inactive: -0.308
46 | GAGAUAGUUCUGUACAUUUTT against PADI2 | inactive: -0.199

Row | Sequence | median seed-adjusted z-score
47 | AGCUCACAAGGAUCCCAAUTT against THPO | inactive: -0.0366
48 | CGGUCGCAGUAAUAGUGGATT against HNRNPA0 | inactive: 0.149
49 | GCACCAACUCGGAUCAUCATT against GALNT12 | inactive: 0.188
50 | CAUCGUGUAUCCCAACAAATT against TRPA1 | inactive: 0.341
51 | GCAUCCUGCUCAUAUGUCATT against SLCO6A1 | inactive: 0.0239
52 | AGCUGACAAUUCUCACUUUTT against AQP8 | inactive: -0.763
53 | CCGAGAAAAUUUCGAUAAATT against NEB | inactive: 0.0485
54 | GCUGUGCUAUUUGAUUAAATT against TSEN2 | inactive: 0
55 | ACUCGACCGUGGUGGGUAATT against GJA4 | inactive: -0.18
56 | UCAACUCGGUAGAGAGAUATT against KLHL17 | inactive: 0.139
57 | GCGAGGUAUUGGGAAAUGATT against ZNF367 | inactive: -0.377
58 | GAGUGUACACUGAUAUUAATT against TOP2B | inactive: 0.225
59 | CCUCAUGCCUUAACCGUCATT against KIF13A | inactive: 0
60 | GCAGUGGGUUCUUCCGUAATT against DHX8 | inactive: -0.251
61 | AGUACAAAAAGGAUCAGAATT against HOXA3 | inactive: 0.315
62 | CAUCUUUGAAGAUCACAUATT against FDX1 | inactive: -0.0549
63 | GCAUGCACCUGCUUCCCAATT against LAIR1 | inactive: -0.0897
64 | GCAUCGUCCGGUACACUAATT against OPRD1 | inactive: 0.314
65 | CCAGGACACCACAUAUAUATT against CTSZ | inactive: -0.393
66 | CCUCAGGUCUUUAUCGGUATT against LGR4 | inactive: 0.14
67 | GAUUCACAUCGUCAAGAAATT against ZNF317 | inactive: 0.087
68 | GGGAUUAGUUAACAAUACATT against CHD7 | inactive: 0.138

Laid out differently: entries from further up

| Row | Sequence | median seed-adjusted z-score |
| --- | --- | --- |
| 47 | AGCUCACAAGGAUCCCAAUTT against THPO | inactive: -0.0366 |
| 48 | CGGUCGCAGUAAUAGUGGATT against HNRNPA0 | inactive: 0.149 |
| 49 | GCACCAACUCGGAUCAUCATT against GALNT12 | inactive: 0.188 |
| 50 | CAUCGUGUAUCCCAACAAATT against TRPA1 | inactive: 0.341 |
| 51 | GCAUCCUGCUCAUAUGUCATT against SLCO6A1 | inactive: 0.0239 |
| 53 | CCGAGAAAAUUUCGAUAAATT against NEB | inactive: 0.0485 |
| 54 | GCUGUGCUAUUUGAUUAAATT against TSEN2 | inactive: 0 |
| 55 | ACUCGACCGUGGUGGGUAATT against GJA4 | inactive: -0.18 |
| 56 | UCAACUCGGUAGAGAGAUATT against KLHL17 | inactive: 0.139 |
| 57 | GCGAGGUAUUGGGAAAUGATT against ZNF367 | inactive: -0.377 |
| 58 | GAGUGUACACUGAUAUUAATT against TOP2B | inactive: 0.225 |
| 59 | CCUCAUGCCUUAACCGUCATT against KIF13A | inactive: 0 |
| 62 | CAUCUUUGAAGAUCACAUATT against FDX1 | inactive: -0.0549 |
| 63 | GCAUGCACCUGCUUCCCAATT against LAIR1 | inactive: -0.0897 |
| 64 | GCAUCGUCCGGUACACUAATT against OPRD1 | inactive: 0.314 |
| 65 | CCAGGACACCACAUAUAUATT against CTSZ | inactive: -0.393 |
| 68 | GGGAUUAGUUAACAAUACATT against CHD7 | inactive: 0.138 |
